Binding data for three molecules are collected here from patent US20090074762A1.

The chains behind the UniProt entries cited, without tags or fusion partners. Where a name states a change or a piece, a line headed by the entry shows the natural chain unless it says otherwise.
UniProt Q9NP84: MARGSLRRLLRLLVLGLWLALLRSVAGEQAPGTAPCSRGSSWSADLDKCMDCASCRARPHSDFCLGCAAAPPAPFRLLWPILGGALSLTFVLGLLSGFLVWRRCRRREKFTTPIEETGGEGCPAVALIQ

Assay [1] has as its target T1, mouse TweakR (mouse) (UniProt Q9CR75).
T1 sequence (looked up): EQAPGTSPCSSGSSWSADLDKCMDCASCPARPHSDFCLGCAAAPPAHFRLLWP
The assay is described as follows: binding assay read as OD650, single bar per antibody and target; format and antibody concentration not given.

For the next assay, the target named is T2, human TweakR (human) (UniProt Q9NP84).
T2 sequence: T1 sequence (looked up) with S7A, S11R, P29R, H47P
The assay is described as above.

The target in assay [2] is T3, human TweakR (R56P) (human) (UniProt Q9NP84).
T3 sequence: T1 sequence (looked up) with S7A, S11R, H47P
The assay is described as above.

The target of assay [3] is T1, mouse TweakR (mouse). The assay is described as follows: binding assay read as OD650; format and antibody concentration not given.
In assay [4] the target is T3, human TweakR (R56P) (human). The assay is described as above.

Where a chain is given by its changes, count along the chain named. Results are given in words; binding and its absence hold for the method and conditions named. Some binding calls cover weakened binding; strength is not graded here.

B1: murine anti-TweakR antibody ITEM-1 (antibody, V domains shown)
VH: EVKLEESGGGLVQPGGSMKLSCVASGFSFSNYWMNWVRQSPEKGLEWVAEIRLKSNNYATHYAESVKGRFTISRHDSKSSVYLQMNNLRAEDTGIYYCTRAYADYFDYWGQGTTLTVSS
VL: DIVLTQSPASLVVSLGQRATISCRASQSVSTSTYSYMHWYQQKPGQPPKILIKYASNLESGVPARFSGSGSGTDFTLNIHPVEEEDTATYYCQHSWEIPYTFGGGTKLEIKR
Consider B1, for which the binding result (with mouse TweakR (mouse) [1]; with human TweakR (human); in assay [2]) was “binds” each time.

B2: murine anti-TweakR antibody ITEM-3 (antibody, V domains shown)
VH: EVKLEESGGGLVQPGGSMKLSCVVSGLTFSRYWMSWVRQSPEKGLEWVAEIRVKSDNYATTHYAESVKGKFTVSRDDSKSRLYLQMSSLRPEDTGIYYCIGYYADAMDYWGQGTSVTVSS
VL: B1 VL with T33S, I50L, N57K, E59D, Y100W, L108M
B2: the binding result (with mouse TweakR (mouse) [1]; in the assay with human TweakR (human); in assay [2]) was “binds” in each case.

B3: murine anti-TweakR antibody 19.2.1 (antibody, mouse IgG2a, V domains shown)
VH: EVKLEESGGGLVQPGGSMKLSCVASGFTFSSYWMSWVRQSPEKGLEWVAEIRLKSDNYATHYAESVKGKFTISRDDSKSRLYLQMNSLRAEDTGIYYCTGYYADAMDYWGQGTSVTVSS
VL: DIVLTQSPASLAVSLGQRATISCRASQSVSTSSYSYMHWYQQKPGQPPKLLIKYASNLESGVPARFSGSGSGTDFTLNIHPVEEEDTATYYCQHSWEIPYTFGGGTKLEIK
As for B3, the binding result (with mouse TweakR (mouse) [3]; in assay [4]) was “no binding” each time.
